What was measured:
Rat [1] = test: concentration in plasma after dosing; conditions: dosed: Benzophenone, 5 mg/kg, oral, Female, F344
Mouse [2] = test: concentration in plasma after dosing; conditions: 0.5 h; dosed: Benzophenone; 15 mg/kg; iv; Female; B6C3F1
Mouse [3] = test: concentration in plasma after dosing; conditions: 7 min; dosed: Benzophenone; 15 mg/kg; iv; Male; B6C3F1
Rat [4] = test: concentration in blood after dosing; conditions: 0.125 h; dosed: Benzophenone; 10 mg/kg; oral; Male; F344
Mouse [5] = test: concentration in plasma after dosing; conditions: 1.25 h; dosed: Benzophenone; 15 mg/kg; iv; Female; B6C3F1
Rat [6] = test: concentration in plasma after dosing; conditions: dosed: Benzophenone, 5 mg/kg, oral, Male, F344
Mouse [7] = test: concentration in plasma after dosing; conditions: 10 min; dosed: Benzophenone; 60 mg/kg; oral; Female; B6C3F1
Mouse [8] = test: concentration in plasma after dosing; conditions: 1 h; dosed: Benzophenone; 30 mg/kg; oral; Male; B6C3F1
Mouse [9] = test: concentration in plasma after dosing; conditions: 3 h; dosed: Benzophenone; 15 mg/kg; iv; Female; B6C3F1
Mouse [10] = test: concentration in plasma after dosing; conditions: 1 h; dosed: Benzophenone; 15 mg/kg; iv; Male; B6C3F1
Rat [11] = test: concentration in plasma after dosing; conditions: dosed: Benzophenone, 5 mg/kg, oral, Female, F344; remark: listed apart in the source
Rat [12] = test: concentration in blood after dosing; conditions: 5 min; dosed: Benzophenone; 5 mg/kg; oral; Female; F344
Mouse [13] = test: concentration in plasma after dosing; conditions: 0.25 h; dosed: Benzophenone; 60 mg/kg; oral; Male; B6C3F1
Mouse [14] = test: concentration in plasma after dosing; conditions: 20 min; dosed: Benzophenone; 15 mg/kg; iv; Male; B6C3F1
Rat [15] = test: concentration in plasma after dosing; conditions: dosed: Benzophenone, 10 mg/kg, oral, Male, F344
Mouse [16] = test: concentration in plasma after dosing; conditions: 0.25 h; dosed: Benzophenone; 60 mg/kg; oral; Male; B6C3F1; remark: listed apart in the source
Mouse [17] = test: concentration in plasma after dosing; conditions: 0.125 h; dosed: Benzophenone; 15 mg/kg; oral; Female; B6C3F1
Mouse [18] = test: concentration in plasma after dosing; conditions: 0.5 h; dosed: Benzophenone; 30 mg/kg; oral; Female; B6C3F1
Rat [19] = test: concentration in plasma after dosing; conditions: dosed: Benzophenone, 10 mg/kg, oral, Female, F344
Rat [20] = test: concentration in blood after dosing; conditions: 0.125 h; dosed: Benzophenone; 10 mg/kg; oral; Male; F344; remark: listed apart in the source
Rat [21] = test: concentration in plasma after dosing; conditions: dosed: Benzophenone, 10 mg/kg, oral, Male, F344; remark: listed apart in the source
Rat [22] = test: concentration in blood after dosing; conditions: 10 min; dosed: Benzophenone; 5 mg/kg; oral; Female; F344
Mouse [23] = test: concentration in plasma after dosing; conditions: 3 h; dosed: Benzophenone; 60 mg/kg; oral; Female; B6C3F1
Mouse [24] = test: concentration in plasma after dosing; conditions: 0.125 h; dosed: Benzophenone; 30 mg/kg; oral; Female; B6C3F1
Rat [25] = test: concentration in plasma after dosing; conditions: dosed: Benzophenone, 5 mg/kg, oral, Female, F344; remark: listed apart in the source
Rat [26] = test: concentration in plasma after dosing; conditions: 16 h; dosed: Benzophenone; 5 mg/kg; oral; Female; F344
Mouse [27] = test: concentration in plasma after dosing; conditions: 0.125 h; dosed: Benzophenone; 60 mg/kg; oral; Male; B6C3F1
Mouse [28] = test: concentration in plasma after dosing; conditions: 3 h; dosed: Benzophenone; 15 mg/kg; oral; Male; B6C3F1
Rat [29] = test: concentration in blood after dosing; conditions: 5 min; dosed: Benzophenone; 10 mg/kg; oral; Male; F344
Mouse [30] = test: concentration in plasma after dosing; conditions: 20 min; dosed: Benzophenone; 15 mg/kg; iv; Female; B6C3F1
Mouse [31] = test: concentration in plasma after dosing; conditions: 0.75 h; dosed: Benzophenone; 15 mg/kg; iv; Male; B6C3F1
Mouse [32] = test: concentration in plasma after dosing; conditions: 2.5 h; dosed: Benzophenone; 15 mg/kg; iv; Male; B6C3F1
Mouse [33] = test: concentration in plasma after dosing; conditions: 1.5 h; dosed: Benzophenone; 15 mg/kg; oral; Male; B6C3F1
Mouse [34] = test: concentration in plasma after dosing; conditions: 1.25 h; dosed: Benzophenone; 15 mg/kg; iv; Female; B6C3F1; remark: listed apart in the source
Mouse [35] = test: concentration in plasma after dosing; conditions: 0.125 h; dosed: Benzophenone; 30 mg/kg; oral; Female; B6C3F1; remark: listed apart in the source
Mouse [36] = test: concentration in plasma after dosing; conditions: 6 h; dosed: Benzophenone; 60 mg/kg; oral; Female; B6C3F1
Rat [37] = test: concentration in blood after dosing; conditions: 0.5 h; dosed: Benzophenone; 5 mg/kg; oral; Female; F344
Mouse [38] = test: concentration in plasma after dosing; conditions: 0.75 h; dosed: Benzophenone; 15 mg/kg; iv; Female; B6C3F1
Rat [39] = test: concentration in plasma after dosing; conditions: dosed: Benzophenone, 5 mg/kg, oral, Female, F344; remark: listed apart in the source
Rat [40] = test: concentration in plasma after dosing; conditions: dosed: Benzophenone, 10 mg/kg, oral, Male, F344; remark: listed apart in the source
Rat [41] = test: concentration in plasma after dosing; conditions: dosed: Benzophenone, 10 mg/kg, oral, Male, F344; remark: listed apart in the source
Mouse [42] = test: concentration in plasma after dosing; conditions: 10 min; dosed: Benzophenone; 30 mg/kg; oral; Female; B6C3F1
Mouse [43] = test: concentration in plasma after dosing; conditions: 0.75 h; dosed: Benzophenone; 15 mg/kg; iv; Male; B6C3F1; remark: listed apart in the source

For `O=C(c1ccccc1)c1ccccc1` [Benzophenone], the concentration in plasma (Rat [1]; 0.125 h) was 177 ng/mL, the concentration in plasma (Rat [1]; 3 h) was 84.7 ng/mL and the concentration in plasma (Mouse [2]) was 2380 ng/mL. The concentration in plasma (Mouse [3]) was 4100 ng/mL, the concentration in blood (Rat [4]) was 1190 ng/mL and the concentration in plasma (Mouse [5]) was 255 ng/mL. For the same molecule, the concentration in plasma (Rat [6]; 0.5 h) was 160 ng/mL, the concentration in plasma (Rat [6]; 10 h) was 34.9 ng/mL and the concentration in plasma (Mouse [7]) was 2750 ng/mL. The concentration in plasma (Mouse [8]) was 319 ng/mL, the concentration in plasma (Mouse [9]) was 58.8 ng/mL and the concentration in plasma (Mouse [10]) was 463 ng/mL. The concentration in plasma (Rat [11]; 10 min) was 155 ng/mL, the concentration in plasma (Rat [11]; 6 h) was 71.1 ng/mL and the concentration in blood (Rat [12]) was 549 ng/mL. The concentration in plasma (Mouse [13]) was 2350 ng/mL, the concentration in plasma (Mouse [14]) was 1830 ng/mL and the concentration in plasma (Rat [15]; 0.125 h) was 225 ng/mL. It also gave a concentration in plasma (Rat [15]; 3 h) of 225 ng/mL, a concentration in plasma (Mouse [16]) of 2430 ng/mL and a concentration in plasma (Mouse [17]) of 597 ng/mL. It also gave a concentration in plasma (Mouse [18]) of 477 ng/mL, a concentration in plasma (Rat [19]; 0.5 h) of 414 ng/mL and a concentration in plasma (Rat [19]; 10 h) of 76.7 ng/mL. The concentration in blood (Rat [20]) was 580 ng/mL, the concentration in plasma (Rat [21]; 0.5 h) was 396 ng/mL and the concentration in plasma (Rat [21]; 10 h) was 135 ng/mL. The concentration in blood (Rat [22]) was 1260 ng/mL, the concentration in plasma (Mouse [23]) was 225 ng/mL and the concentration in plasma (Mouse [24]) was 1580 ng/mL. The concentration in plasma (Rat [25]; 0.125 h) was 160 ng/mL, the concentration in plasma (Rat [25]; 3 h) was 99.3 ng/mL and the concentration in plasma (Rat [26]) was 17.6 ng/mL. It also gave a concentration in plasma (Mouse [27]) of 3400 ng/mL, a concentration in plasma (Mouse [28]) of 11.4 ng/mL and a concentration in blood (Rat [29]) of 879 ng/mL. The concentration in plasma (Mouse [30]) was 1610 ng/mL, the concentration in plasma (Mouse [31]) was 528 ng/mL and the concentration in plasma (Mouse [32]) was 71.2 ng/mL. It also gave a concentration in plasma (Mouse [33]) of 57.9 ng/mL, a concentration in plasma (Mouse [34]) of 239 ng/mL and a concentration in plasma (Mouse [35]) of 926 ng/mL. The concentration in plasma (Mouse [36]) was 80.5 ng/mL, the concentration in blood (Rat [37]) was 630 ng/mL and the concentration in plasma (Mouse [38]) was 381 ng/mL. For the same molecule, the concentration in plasma (Rat [39]; 10 min) was 228 ng/mL, the concentration in plasma (Rat [39]; 6 h) was 71.5 ng/mL and the concentration in plasma (Rat [40]; 0.5 h) was 484 ng/mL. The concentration in plasma (Rat [40]; 10 h) was 105 ng/mL, the concentration in plasma (Rat [41]; 0.25 h) was 270 ng/mL and the concentration in plasma (Rat [41]; 24 h) was 46.4 ng/mL. The concentration in plasma (Mouse [42]) was 604 ng/mL and the concentration in plasma (Mouse [43]) was 504 ng/mL.
